Some of these results come from one statement about several compounds together.
Tested on: renal tubules
Assay: 28-day repeat dose study of known nephrotoxicants, kidney histopathology on day 5 and day 28
Assay type: in vivo, rat
Conditions: day 28, kidney histopathology, n=10
Experimental: 28-day repeat dose studies were conducted on known nephrotoxicants. Doses were chosen that would not cause histological or clinical evidence of renal tubular injury after 5 days of dosing, but would cause histological evidence of tubular injury after 28 days of dosing. Animals were assigned to groups such that mean body weights were within 10% of the mean vehicle control group. Test compounds were administered either orally (10 ml of corn oil/kg body weight) or by intra-peritoneal injection (5 ml of saline/kg body weight). Animals were dosed once daily starting on day 0, and necropsied 24 hrs after the last dose following an overnight fast on day 5 (n=5) and day 28 (n=10). An equivalent number of time- and vehicle-matched control rats were treated concurrently. […]
All animals were monitored daily for clinical observations approximately 1 hr after dosing. […] Body weights were recorded pre-test and daily thereafter for reference database (i.e., DrugMatrix™) studies, and on days 0, 3, 5, 7, 14 and 28 for the sub-chronic studies. Terminal body weights were measured at necropsy and used to calculate relative organ weights and percent body weight gain relative to day 0. […]

## O=[N+]([O-])c1cc([As](=O)(O)O)ccc1O [ROXARSONE]
  incidence of tubular regeneration: 4-6 rats

## CCCCCCCCCc1ccc(O)cc1 [4-NONYLPHENOL]
  incidence of tubular regeneration: 4-6 rats
